Laboratory results taken from patent US20250034135A1, “ANTI-APOPTOTIC PROTEIN BCL-2 INHIBITOR, PHARMACEUTICAL COMPOSITION AND USES THEREOF” (HANGZHOU HEALZEN THERAPEUTICS CO., LTD., priority 2021, published 2025).
pIC50: −log10 of the molar value. Structures were worked out from names or drawings and are uncertain.

By UniProt entry, the sequences of proteins in these tests, tags left out.
UniProt P10415, whole entry: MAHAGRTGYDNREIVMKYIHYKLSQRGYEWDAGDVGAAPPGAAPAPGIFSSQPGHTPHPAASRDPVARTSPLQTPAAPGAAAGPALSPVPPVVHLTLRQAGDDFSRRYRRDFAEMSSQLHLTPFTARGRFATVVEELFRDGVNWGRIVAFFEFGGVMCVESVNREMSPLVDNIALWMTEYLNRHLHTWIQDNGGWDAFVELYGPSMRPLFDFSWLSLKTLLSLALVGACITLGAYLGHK

Biological target: BCL2 (Homo sapiens (Human), UniProt P10415)
Experiment: Molecular level activity test of anti-apoptotic protein BCL2 (HTRF, binding to Bim peptide)
Settings: read-out: BCL2 nM (inhibitory activity, IC50)

Row | pIC50 | SMILES
1 | > 8.00 | CC(C)c1ccccc1[C@@H]1CCCN1C1CC2(CCN(c3cc(Oc4cnc5[nH]ccc5c4)c(C(=O)NS(=O)(=O)c4cc([N+](=O)[O-])c(NC[C@H]5CC[C@](C)(O)CC5)c5[nH]cnc45)cn3)CC2)C1
2 | > 8.00 | CC(C)c1ccccc1[C@@H]1CCCN1C1CC2(CCN(c3cc(Oc4cnc5[nH]ccc5c4)c(C(=O)NS(=O)(=O)c4cc([N+](=O)[O-])c(NCC5CCC(O)CC5)c5[nH]cnc45)cn3)CC2)C1 (stereo partly drawn)

Row | SMILES | pIC50
3 | CC(C)c1ccccc1[C@@H]1CN(Cc2ccccn2)CCN1C1CC2(CCN(c3cc(Oc4cnc5[nH]ccc5c4)c(C(=O)NS(=O)(=O)c4ccc(NCC5(F)CCOCC5)c([N+](=O)[O-])c4)cc3F)CC2)C1 | > 8.00
